# Measurements: US20210030719A1, “GRP94 INHIBITORS TO TREAT STEROID-INDUCED OCULAR HYPERTENSIONS AND GLAUCOMAS” (UNIVERSITY OF SOUTH FLORIDA, priority 2018, published 2021)
# At least one compound was matched to its structure with a doubt left.
# Legend:
# [1] = test system: Wild-type (WT) mice; test: Mouse model of steroid-induced glaucoma, IOP by rebound tonometer, WT mice; type: in vivo
# [2] = test system: mice lacking myocilin (Myoc-/-, Myoc-KO); test: Mouse model of steroid-induced glaucoma, IOP by rebound tonometer, Myoc-KO mice; type: in vivo
# [3] = test system: ECM components (Collagen I, Fibronectin); test: ECM components in lysates of anterior eye sections of SIG model mice (dot blot / Western blot); type: in vivo, mouse; details: for Collagen I levels in anterior eye lysates / levels of Fibronectin in anterior eye lysates: dex treated group, end of study
# Excerpt: Animal Husbandry: Mice were housed and bred at the University of South Florida Byrd Alzheimer's Institute. All animal procedures performed in this study followed the ARVO Statement for the Use of Animals in Ophthalmic and Vision Research and were approved by the University of South Florida Institutional Animal Care and Use Committee. A cohort of 35 animals from separate litters were used for this study; 20 male mice (10 WT and 10 Myoc-KO) and 15 female mice (8 WT and 7 Myoc-KO). […] Technicians performing the drug delivery and tonometry measurements were blinded for animal genotype as well as each compound and the respective vehicle treatment. […] No other treatment groups or geneotypes suffered losses. One WT animal on the Dex+4Br—BnIm study began the study with only one eye. […] 4Br—BnIm treatment dose was based on previous studies. […] The drop was allowed to sit on the eye for 1 minute before the mouse was returned to its cage. One drop of 0.1% Dexamethasone eye drops (Dexamethasone Sodium Phosphate Ophthalmic Solution USP, 0.1% Dexamethasone Phosphate Equivalent; Bauch and Lomb) or PBS (vehicle) was applied to each eye. Dexamethasone treatments were conducted at 6:30 AM, 9 AM, and 2 PM, every day.
# Eye enucleation: Mice were euthanized with a 0.2% Somnasol (50 mg/kg) in saline solution. Eyes were gently removed from the skull preserving the morphology of the eye globe. Once removed from the skull, eyes were bisected into anterior and posterior sections and frozen for Western blot analysis.
# (§1) Western and Dot Blots: Anterior eye segments and HTM cells were lysed in RIPA buffer. HTM lysates were separated by SDS-PAGE and transferred to a PVDF membrane. Lysates and culture media for dot blots were applied to a nitrocellulose membrane. Blots were blocked in 7% non-fat milk solution. Myocilin antibody was provided by W. D. Stamer. Collagen I and Fibronectin antibodies were purchased from Santa Cruz Biotechnology. Actin antibody was purchased from Sigma Aldrich (St. Louis, Mo.). Blots were developed using species specific secondary antibodies from Southern Biotech.
# (§2) Quantification and Statistical Analysis: Two-tailed student's t-test and two-way ANOVA with Bonferroni's post-hoc tests were used as detailed in the figure legends. Values were considered significant if p<0.05. Graphs were generated using GraphPad Prism 5.0 analysis software or Microsoft Excel. N-value in this study is depicted as number of animals or number of eyes where indicated. Graphs are plotted as ±SEM or % CV as indicated.
# [4] = test system: human trabecular meshwork (HTM) cells; test: HTM cell lysates, intracellular Collagen I and Fibronectin (Western blot); type: cell-based; details: 100 nM dexamethasone, 10 days
# Experimental: (§3) HTM Treatments: Low passage number human trabecular meshwork (HTM) cells were cultured in DMEM supplemented with 10% fetal bovine serum and 1% penicillin/streptomycin. HTM cells were treated for 10 days (replaced every 2-3 days) with 100 nM dexamethasone. HTM cells were validated by expression of myocilin under these conditions.
# as §1, §2
# [5] = test system: human trabecular meshwork (HTM) cells; test: HTM cell culture medium, extracellular proteins (dot blot); type: cell-based; details: dexamethasone
# Experimental: as §3, §1, §2
smiles,measurement,setting,value
C[C@@H]1C[C@H]2[C@@H]3CCC4=CC(=O)C=C[C@]4(C)[C@@]3(F)[C@@H](O)C[C@]2(C)[C@@]1(O)C(=O)CO [dexamethasone],intraocular pressure (IOP),[1]; WT mice treated with dex eye drops,developed elevated intraocular pressure
same,time to statistically significant increase in IOP after initiation of dex treatment,"[1]; WT mice, 0.1% dexamethasone topical 3x/day",two
same,intraocular pressure (IOP),[2]; Myoc-KO mice following dex,develop elevated IOP
same,time to statistically significant IOP increase after dex treatment initiation,"[2]; Myoc-KO mice, 0.1% dexamethasone topical 3x/day",three
same,Collagen I levels in anterior eye lysates,[3],increases
same,levels of Fibronectin in anterior eye lysates,[3],increases
same,Collagen I levels in anterior eye lysates,[3]; listed as dex,positive trend
same,levels of Fibronectin in anterior eye lysates,[3]; listed as dex,significant increase
same,levels of Collagen IV in mouse eyes,[3]; topical dexamethasone,increases
same,levels of pro-collagen in mouse eyes,[3]; topical dexamethasone,decreases
same,internal Collagen I levels,[4],statistically significant increases
same,internal Fibronectin levels,[4]; not significant,elevated levels
same,Levels of Collagen IV,[5]; HTM cells,moderately increased
same,extracellular Collagen I,[5]; HTM culture medium,statistically significant increases
same,extracellular Fibronectin,[5]; HTM culture medium,statistically significant increases
